Results deposited as PubChem BioAssay AID602196 (INSERM, 2012).

- Aim: 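Genes whose knock-down alters cisplatin killing of lung cancer cells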
- System: human A549 lung cancer cells
- Reagents: siRNA pair against human genes
- Timing: 48 h transfection before cisplatin; time from cisplatin to read-out not stated
- Treatment: cisplatin at a dose killing half of control-siRNA cells; exact dose and duration not given
- Measured: 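Shift in cisplatin death relative to control siRNA, from -50 (all cells die) to +50 (no cells die); siRNAs harmful on their own scored 0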
- Reading the numbers: two-siRNA summed score (-2 to +2): higher = both siRNAs protect from cisplatin killing; -2 means both sensitise; mean protection from cisplatin (shift in death) and protection from cisplatin (shift in death), siRNA C and protection from cisplatin (shift in death), siRNA D: higher = protection from cisplatin killing
- Hit rule: 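Each siRNA scores 0 if harmful alone by LDH or WST-1, otherwise +1 if it reduces and -1 if it increases cisplatin killing; a gene is active when both siRNAs agree (sum +2 or -2)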
- Meaning of the calls: active = both siRNAs shift cisplatin killing the same way; inactive = no consistent shift, or siRNA harmful alone
The deposit covers about 23,000 reagents; below is a random part of them. 455 of all reagents (2%) count as active. 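Active includes both protection and sensitisation; some change values fall well beyond the stated -50 to +50 range.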 Unmarked entries are inactive. Reagents against one gene are numbered here. No sequences are given here. Not given: the amount of reagent.

no.	Target gene	reagent no.	two-siRNA summed score (-2 to +2)	mean protection from cisplatin (shift in death) (%)	protection from cisplatin (shift in death), siRNA C (%)	protection from cisplatin (shift in death), siRNA D (%)
1	FBN3	1	0	-6.4	-9	-3.7
2	CXCL16	1	1	-12.2	27.2	-51.7
3	TMEM52	1	0	9.6	24.6	-5.3
4	ITIH1	1	0	-7.7	-3.3	-12.1
5	ZNF774	1	-1	-1.8	9.5	-13.1
6	LOC441473	1	1	12.4	22.6	2.2
7	LOC440277	1	1	14.9	11.5	18.4
8	ALX3	1	0	12.1	12.5	11.7
9	RAB5IF	1	0	6.9	2.2	11.5
10	RASSF9	1	-1	-9.9	-0.6	-19.3
11	LOC400786	1	0	7.2	12.2	2.3
12	STAR	1	-1	-10.3	-4.9	-15.7
13	TSPAN16	1	0	-12	-12.2	-11.8
14	APOL4	1	0	6.4	13.2	-0.4
15	LOC440337 (retired record)	1	0	19.6	13.1	26.2
16	SPO11	1	0	-12.9	-3.4	-22.4
17	LOC399747	1	0	8.6	12.4	4.8
18	MTRF1L	1	0	16.9	13	20.7
19	OR51M1	1	1	15.7	17.3	14.1
20	ANKRD60	1	-1	-3.9	-14.3	6.5
21	CCDC34	1	0	-3.2	1.6	-7.9
22	TMPRSS6	1	0	-2.5	-6	1
23	PSORS1C1	1	0	2.7	17.4	-12
24	FAM230J	1	0	-0.7	-1.1	-0.2
25	CASD1	1	0	3.2	2.3	4.1
26	CLIC5	1	0	-20	-19.9	-20.1
27	OR4D1	1	0	3.6	-6.7	13.9
28	CES1	1	-1	-9.6	-25.4	6.1
29	TARS1	1	0	-4	7.7	-15.8
30	CHKA	1	0	-14.2	-27.2	-1.3
31	CXCL5	1	0	1.7	3.3	0.2
32	IFITM3	1	0	2.6	8.9	-3.8
33	USP24	1	0	7.6	4.1	11.1
34	CORO1A	1	0	-4.8	0.6	-10.2
35	RUMY4	1	0	7.5	10.2	4.8
36	TACSTD2	1	0	9.2	10.9	7.5
37	ZNF460	1	0	13.5	13.9	13.2
38	SOX4	1	0	-4.9	-3.9	-5.9
39	DKFZp762N1910	1	0	-3.4	-14.1	7.3
40	ZNF561	1	0	4.3	14	-5.4
41	DCAF6	1	0	-1.1	0.8	-2.9
42	DCAF6	2	0	7.7	9.4	6
43	EMC6	1	0	5.8	1.6	10
44	EMC6	2	1	24.6	18.3	30.8
45	TNK2	1	0	12.1	25.6	-1.4
46	BCDIN3D	1	0	-7	2.1	-16.2
47	SRRM4	1	0	3	2.2	3.8
48	MRE11	1	0	13.4	13.1	13.7
49	PPP1R12A	1	0	-3.2	-5.2	-1.2
50	TBC1D15	1	0	-2	-2.7	-1.2
51	MGRN1	1	0	10.2	4	16.4
52	OPN5	1	0	15.5	30.5	0.5
53	OPN5	2	1	11.5	11.2	11.9
54	COA6	1	0	11.9	5	18.8
55	SORCS3	1	0	-4	2.3	-10.4
56	ERVMER61-1	1	1	9.5	5.5	13.6
57	DCDC1	1	0	5	-3.5	13.5
58	DCDC1	2	1	20	16.2	23.8

10 entries already listed, sorted by “protection from cisplatin (shift in death), siRNA D (%)”, ascending:
Target gene	reagent no.	two-siRNA summed score (-2 to +2)	mean protection from cisplatin (shift in death) (%)	protection from cisplatin (shift in death), siRNA C (%)	protection from cisplatin (shift in death), siRNA D (%)
SPO11	1	0	-12.9	-3.4	-22.4
RASSF9	1	-1	-9.9	-0.6	-19.3
STAR	1	-1	-10.3	-4.9	-15.7
TSPAN16	1	0	-12	-12.2	-11.8
APOL4	1	0	6.4	13.2	-0.4
LOC400786	1	0	7.2	12.2	2.3
LOC399747	1	0	8.6	12.4	4.8
RAB5IF	1	0	6.9	2.2	11.5
MTRF1L	1	0	16.9	13	20.7
LOC440337 (retired record)	1	0	19.6	13.1	26.2
